Consider one substance from article PMC7683387.

The chains behind the UniProt entries cited, without tags or fusion partners. Residues count along the entry.
UniProt P27918, residues 28-469: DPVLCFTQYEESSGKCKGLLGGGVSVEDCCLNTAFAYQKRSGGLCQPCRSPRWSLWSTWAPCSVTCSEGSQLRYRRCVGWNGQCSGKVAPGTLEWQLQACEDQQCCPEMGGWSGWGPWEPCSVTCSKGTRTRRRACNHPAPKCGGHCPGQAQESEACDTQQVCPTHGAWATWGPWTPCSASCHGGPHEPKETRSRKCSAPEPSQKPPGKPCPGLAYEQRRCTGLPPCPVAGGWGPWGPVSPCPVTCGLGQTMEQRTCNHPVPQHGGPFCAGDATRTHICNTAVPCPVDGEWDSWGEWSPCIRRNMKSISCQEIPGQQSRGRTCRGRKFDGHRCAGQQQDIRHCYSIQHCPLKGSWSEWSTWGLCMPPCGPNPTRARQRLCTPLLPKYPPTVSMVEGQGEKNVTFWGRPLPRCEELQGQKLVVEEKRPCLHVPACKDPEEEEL

These are yes or no findings as the source states them, for the method shown.

For the test, the target named is T1, LipL32 (L. interrogans serovar Copenhageni 10A) (UniProt Q72SM7).
T1 sequence: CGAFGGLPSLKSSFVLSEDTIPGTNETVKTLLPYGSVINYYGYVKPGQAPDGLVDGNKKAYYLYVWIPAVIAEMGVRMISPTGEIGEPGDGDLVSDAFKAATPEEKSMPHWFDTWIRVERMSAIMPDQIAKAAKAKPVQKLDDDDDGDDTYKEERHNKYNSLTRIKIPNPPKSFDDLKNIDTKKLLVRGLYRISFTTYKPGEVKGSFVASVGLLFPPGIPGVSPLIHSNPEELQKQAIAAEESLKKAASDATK
The test is described as follows: ELISA; 1 µg of each recombinant leptospiral protein immobilised on ELISA plate wells, incubated with 0.5 µg of properdin (unfractionated or oligomer); detected with goat polyclonal anti-human properdin and peroxidase-conjugated anti-goat IgG, OPD, absorbance 492 nm; basal values with PBS subtracted; both purified. (In general: ELISA stands for enzyme-linked immunosorbent assay.)

With “unfractionated commercial purified human properdin (from UniProt P27918 28-469)”, the binding result was “no binding (tested: 0.5 µg of properdin)”.
